# Results from the supplement of paper PMC5949888.
# Most values lie at the floor of the assay. Slopes are relative: functional sequences can read slightly below zero.
# Test system: Saccharomyces cerevisiae PS128 hsf1 delta, HSF1(1-493) fusion
# Test: growth estimate (transactivation domain function in HSF1 fusion, heat-shock survival) (a.u. (slope of normalised read count over time)); higher = stronger growth at 37°C, i.e. more transactivation activity
# Conditions: library: random library
# Experimental: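 Random 60-nt DNA library encoding peptides of up to 20 aa, fused to the C-terminus of yeast HSF1 residues 1-493 (C-terminal TAD deleted) and expressed from the native HSF1 promoter on a CEN plasmid in hsf1-deleted S. cerevisiae PS128. Cells were selected at 37°C on -trp 5-FOA plates for 0, 2, 4, 6 and 8 days and amplicons were sequenced. Growth estimate is the slope of a robust linear fit of total-sum-normalised read counts (normalised to the first time point) over time, using at least 2 replicates. Sequences are classed functional (TAD activity) above a threshold of -0.13, set from stop-codon control sequences.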
row,Substance,growth estimate
1,HTIRIGDM,< -0.25
2,LRSGTVVVHYAGV,< -0.25
3,SAIACDFLQRRGLHFLLSVA,< -0.25
4,GVNMYYSKHEQREGGGPEWV,< -0.25
5,QGYRTVCVYINLGRWVG,-0.237
6,YFSRP,< -0.25
7,AEREAAR,< -0.25
8,SLDLRGPLQIFCV,< -0.25
9,ILMEALKNLKVQCPEKASAS,< -0.25
10,VRPYMRKNNRTAHHHSLTVR,< -0.25
11,TRLTSAET,< -0.25
12,RDISLERAA,< -0.25
13,TCPDRKLIFPLMSYAWVGRT,< -0.25
14,TTNSIYFNLQSELERTGLLN,< -0.25
15,SGCIRSPVRKHRCAGSPSSV,< -0.25
16,DFNKPTDAG,0.207
17,SAQVR,< -0.25
18,VGCFADKTFGPHNTIAGSTP,< -0.25
19,KTSA,< -0.25
20,SVCLDTGLEREMTS,< -0.25
21,VVDASQVDSGRFYVIYNGYG,< -0.25
22,PNLRETLKLGSVDL,< -0.25
23,NHRP,< -0.25
24,PPH,< -0.25

row,Substance,growth estimate
1,GNLKGSLSSKLDHPEGMMGR,< -0.25
2,LWQIRFL,-0.243
3,AALPKSFVQAIDLQDRA,< -0.25
4,RGSYGVSREGVTLN,< -0.25
5,LSRFSSGVAGLPVDEEKVLR,< -0.25
6,GPRPGPRWILGTIVIV,< -0.25
7,GSLGDYTLGR,< -0.25
8,SVSVTVQVVKIFGPTAP,< -0.25
9,SSQAGSGRGRATRADSLGAS,< -0.25
10,VLVVGENLAIREGTDP,< -0.25
11,CFCNERIVHG,< -0.25
12,QFTDPGPQTNAFCWHGSDSA,< -0.25
13,LALDTRCASALWHGRL,< -0.25
14,MSRYTEMRICFNPAREAVG,< -0.25
15,QPDNRPMGRAPVVSIL,< -0.25
16,GDERNGGSIAEIWDLRWSEM,-0.247
17,MTRS,< -0.25
18,QSNLEACSRCSLIDTPGTCV,< -0.25
19,TVEPTRRCYRLFY,< -0.25
20,CLLASTAL,< -0.25
21,VEVDPAGLISVRWRTATWQ,< -0.25
22,GGTKRIMSYLGRRIPVRYAC,< -0.25
23,PGTSRHVIMGPRLIARTR,< -0.25
24,IEGY,< -0.25

row,Substance,growth estimate
1,ASQETRVRPGKRAYFLPVVE,< -0.25
2,PETVRRSDGYRSQN,< -0.25
3,HVARPTPTAGSVCWFG,< -0.25
4,YNIRGAQQAVHRETVLMNCS,< -0.25
5,RFCMFYLSNLFATLRLRSYA,< -0.25
6,SGSWVPATNPGIGYVSTLDE,< -0.25
7,RRK,< -0.25
8,TWVLR,< -0.25
9,AALRVVG,< -0.25
10,QRHDGYCDWGRLVRGCKSTA,< -0.25
11,SLRRKDCGCYSGRSPWP,< -0.25
12,ISTIRLADLPLDGM,-0.177
13,VPE,< -0.25
14,HCMQSTRCGTPQNGYNLVQG,< -0.25
15,VSCARVLNSYGEAGSLTFAR,< -0.25
16,GFPQVMRCELRLIH,< -0.25
17,IKGANLVPAVWPVVTRSGRG,< -0.25
18,RMGYGAVYLTSQPRNKVTLL,< -0.25
19,ATGTRA,< -0.25
20,YSVEMLQTRLPCCAKRCPLR,< -0.25
21,DVAFDSSGKRSPLNS,< -0.25
22,YCSRNGTALSSR,< -0.25
23,CLGVSCAAPCWVPDLAMP,< -0.25
24,EGGFLRVQLLQVVTVRAASS,< -0.25

row,Substance,growth estimate
1,LDDGIDATLEDRVSSPWLAE,-0.0911
2,SAYALPFHAPGGLS,< -0.25
3,GRRGRNASQRKAMWLQQRAA,< -0.25
4,VVRLLEWFPARACYGALLAL,< -0.25
5,RNLVTARYSLEPKDDLQGVE,< -0.25
6,VGVSNWELLLPNESYIALDP,< -0.25
7,DSGYGGRGGAGIIVSLPSPC,< -0.25
8,ARLRVVDVPTLGAGPVGGTE,< -0.25
9,PPKTWLEGACDCGKLKVLRV,< -0.25
10,DLAARTLPLRLM,< -0.25
11,AIGSGA,< -0.25
12,QPKQGNGLRVLMGRSTAGFY,< -0.25
13,KCRYAHPPCSKL,< -0.25
14,IVFYRGVHRR,< -0.25
15,SGWWG,< -0.25
16,GTLTESDYATDMSDFRRHCH,< -0.25
17,LPGLLRRLRVRIASSNW,< -0.25
18,LALGGGLT,< -0.25
19,QFWAGSRT,< -0.25
20,MVIVLRSSRVTFFPCTAEKC,< -0.25
21,GNSNWIATVRAIR,< -0.25
22,KIITSKWF,-0.0645
23,RQVI,< -0.25
24,VPV,< -0.25

row,Substance,growth estimate
1,RLGRRPDEPIGSVVG,< -0.25
2,FTQQYDAALLTLFPQSTDGT,< -0.25
3,RECVSVSTGACWCRLSPTKQ,< -0.25
4,ECAPDYAEEGDLALSPEAHS,< -0.25
5,RGVEDLLVGLTQIIGRPV,< -0.25
6,FRFSGPSNYLTEVISINSGG,< -0.25
7,GDENMSAFFQRLVSARRGTT,-0.243
8,PAVHHPRTSGGVAVVPKDVQ,< -0.25
9,LRP,< -0.25
10,GGRVTVRLTA,< -0.25
11,RAVSYRPPPSVRFSKQQW,< -0.25
12,PKGGFRGGPRLLFLVCKTHS,< -0.25
13,ESLIVLPTGDTPRSSK,< -0.25
14,GVVKGKENKCMLGLQTARQH,< -0.25
15,LRGTNGSVDVIPGQTTGG,< -0.25
16,VTGHSYRWRVQCRTV,< -0.25
17,ILEIAHFAIVCPDNGDRLQR,< -0.25
18,RMRRADHAPGCYW,< -0.25
19,IVIS,< -0.25
20,KVSYIQSLTLIPVRL,< -0.25
21,NSDGAYVPQALAKLECRFER,< -0.25
22,GLEGNNHLR,< -0.25
23,PADACTLNANAQTAFECR,< -0.25
24,LQRRFVWFDPGRPGEGICVC,< -0.25

row,Substance,growth estimate
1,VHLSVLTPKVDLPSSWHESR,< -0.25
2,RDRISVTKCYCTIDDIEQGP,< -0.25
3,YGVRRTDGERSGE,< -0.25
4,GLHVKYIP,-0.246
5,LGSLDTYLGLAGAERLKLPF,< -0.25
6,VRLYEDVTGISKGTVAGVDG,< -0.25
7,RGPGTSKAEERSVGVEAASL,< -0.25
8,VHGSPQHTTETARPSCVSRV,< -0.25
9,GSIPSC,< -0.25
10,YLWSIPGRGIGHSFGIYKFI,< -0.25
11,LKSNGGNTAVSID,< -0.25
12,SYVDIPGIRAGGFPRLKSSV,< -0.25
13,SLPDPK,< -0.25
14,GEGVDRCDGGGIFRCR,< -0.25
15,HTCE,-0.111
16,PSPHGHGAKVNVRHNACLSP,< -0.25
17,LCQSYRWVANYRRICLWGGL,< -0.25
18,STISMSGRVEGRKAWYATRV,< -0.25
19,ASLRGSIRQIGVEGIRHKF,< -0.25
20,FSAGISQRQDLDTQCYHVYP,< -0.25
21,WYSIGCSSSRSSGFTKIMLA,-0.246
22,HYTSANRRVNK,< -0.25
23,ISLLARSTLSKRKSICGRLC,< -0.25
24,YCAMDATRRLRASTDCRIFH,< -0.25

# In a second layout: entries from further up.
row | Substance | growth estimate
13 | KCRYAHPPCSKL | < -0.25
14 | IVFYRGVHRR | < -0.25
15 | SGWWG | < -0.25
16 | GTLTESDYATDMSDFRRHCH | < -0.25
17 | LPGLLRRLRVRIASSNW | < -0.25
18 | LALGGGLT | < -0.25
19 | QFWAGSRT | < -0.25

# Some of the entries above in a different format.
row	Substance	growth estimate
5	LGSLDTYLGLAGAERLKLPF	< -0.25
18	STISMSGRVEGRKAWYATRV	< -0.25

# Next part.

row,Substance,growth estimate
1,LGIRIP,< -0.25
2,QFSSGRKLVMGGLRGP,< -0.25
3,TMLGTVRLETRETVRALNTG,< -0.25
4,PLCYRSSNI,-0.0944
5,YAMYGY,< -0.25
6,APGEIISGDPTSQP,< -0.25
7,YLDNAWVRLQAKLIGHEIRT,< -0.25
8,LGKKSMAPEWSPIVTGLELP,< -0.25
9,CDVCIPVSPAVSAGQAA,< -0.25
10,GLVARRCCRDRWALCHPSGT,< -0.25
11,NRQLVPPNTKRSYRLRCTCF,< -0.25
12,PGLRREVCLTPTPIRESWFK,< -0.25
13,GYGTYNAMLSY,< -0.25
14,LETCPYLGRRKTKSGRRGGF,< -0.25
15,SAQWYRH,< -0.25
16,KLHRSIQAIKDDRLAAPACQ,< -0.25
17,SSARKQNTLVPD,< -0.25
18,EPALDGV,< -0.25
19,RQRTDV,< -0.25
20,YGCSRHVPALRSECSHWSAS,< -0.25
21,LDEMLRRQHAYVCVIASWFK,< -0.25
22,GTRTDPIRSAAHRLSF,< -0.25
23,SKRHCVLTFSREPIHLYLPY,< -0.25
24,TGVVGVLFDADIYGVPNLRC,-0.245

row,Substance,growth estimate
1,CEILVGCPDY,< -0.25
2,RIIAPEGR,< -0.25
3,NNESKVVNHC,< -0.25
4,VQGLRSPEDGFRGAAPPKAA,< -0.25
5,FGRLRYIVTEWSVRRWAPVT,< -0.25
6,RFGL,< -0.25
7,RSRSKRRTTRMVLSELCQMA,< -0.25
8,PRVRLFG,< -0.25
9,SLSGLSFSSPSQHSLFGAEL,< -0.25
10,IAWPAEVAHALMSVHALSGV,< -0.25
11,QIRVSILSQVGATR,< -0.25
12,GRLIINGHRAHRTLWERPPR,< -0.25
13,GGYRIPGSGDDLSLEVTERS,< -0.25
14,EIGYSLPVTAVTILS,< -0.25
15,HWCQTANGVSYRVMCFLKPG,< -0.25
16,RVTEELGHKRYADISPPRGT,< -0.25
17,RWCLSPHRHRRLHKMEGEPP,< -0.25
18,SDSTSGAVSLRYGISFVQH,< -0.25
19,LKYMSLVQSAPLRPTSPFPN,< -0.25
